Values from PubChem BioAssay AID1053208 (Peter MacCallum Cancer Centre, 2014)
Here is an unselected part of about 17,000 reagents tested. 788 of all reagents (4.7%) were called active. 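Calls rest on z-score classes alone; an extra cut-off of viability at most 70% of control was not applied to them.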 A number with no mark means an inactive call.

- Test: 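Synthetic lethal interactions between gene loss and doxorubicin in osteosarcoma cells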 (primary screen)
- System: mouse osteosarcoma cells, early-passage culture from an engineered mouse model of fibroblastic bone tumour
- Reagents: siRNA pool against mouse genes, 40 nM
- Timing: about 120 h (48 h before drug, then 72 h with drug)
- Conditions: doxorubicin 100 nM for 72 h, roughly 30-40% inhibitory dose
- Read-out: 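Viability read as ATP luminescence after 72 h of 100 nM doxorubicin or none, duplicate wells averaged, scaled to non-targeting siRNA, then expressed as robust z-scores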
- Direction: viability z-score with doxorubicin and doxorubicin viability vs non-targeting: higher = more viable cells under doxorubicin; viability z-score without drug: higher = more viable cells with knock-down alone; z-score of drug to no-drug ratio: higher = less drug sensitisation by knock-down
- Rule for the call: 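Called active if knock-down leaves viability unchanged without drug (z within -2 to 2) but lowers it with doxorubicin (z at or under -2)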

target	combined z-score class	viability z-score with doxorubicin	viability z-score without drug	z-score of drug to no-drug ratio	doxorubicin viability vs non-targeting
Washc5	no change with or without drug	-0.67	1.52	-1.46	0.88
Fmc1	low cell count with and without drug	-4.38	-4.89	-1.69	0.55
Plbd1	no change with or without drug	-0.22	-0.84	0.45	0.92
Atp8b2	no change with or without drug	-0.79	1.35	-1.57	0.87
Or4b1d	no change with or without drug	-1.35	-1.85	0	0.82
Npr3	high cell count with doxorubicin only	2.25	0.67	1.91	1.14
Ccdc28b	no change with or without drug	-0.45	1.69	-1.35	0.9
Ddo	no change with or without drug	-0.9	-0.84	-0.22	0.86
Pcmtd2	no change with or without drug	1.57	1.18	0.9	1.08
Mapk8ip2	high cell count without drug only	1.69	3.88	-0.67	1.09
Lynx1	no change with or without drug	-0.11	0	0	0.93
Zfp799	no change with or without drug	0.45	0.17	0.45	0.98
Lpar4	no change with or without drug	0.67	0	0.79	1
Kcna5	no change with or without drug	0	0.67	-0.34	0.94
D630004N19Rik	no change with or without drug	-0.45	1.52	-1.24	0.9
Ap1s2	high cell count without drug only	0.79	2.19	-0.45	1.01
Crtap	no change with or without drug	0.45	1.18	-0.22	0.98
Trim69	no change with or without drug	-1.01	0.51	-1.24	0.85
F2rl3	no change with or without drug	-0.34	-1.18	0.56	0.91
Arhgap5	no change with or without drug	-0.67	-0.84	0	0.88
Or7g17	no change with or without drug	-0.9	0.34	-1.01	0.86
Rprd1b	high cell count with doxorubicin only	2.25	1.35	1.46	1.14
Bcor	no change with or without drug	0.45	-0.17	0.67	0.98
2810449C13RIK	no change with or without drug	0.79	-0.34	1.24	1.01
Asb15	no change with or without drug	0.22	-0.51	0.67	0.96
Rab40b	high cell count without drug only	1.01	2.87	-0.67	1.03
Dctd	no change with or without drug	1.35	0.34	1.24	1.06
Edc4	no change with or without drug	0.11	-0.17	0.34	0.95
Hhat	no change with or without drug	1.12	0.17	1.12	1.04
Eif6	no change with or without drug	-1.57	-0.51	-1.24	0.8
Stfa1	high cell count with and without drug	2.47	2.36	0.9	1.16
4933414I15Rik	high cell count without drug only	1.91	3.04	0	1.11
Or9k2b	no change with or without drug	-0.9	-0.34	-0.67	0.86
B530045E10Rik	no change with or without drug	-0.22	-0.17	0	0.92
Slc4a4	no change with or without drug	-0.45	-0.34	-0.11	0.9
Hmgxb4	no change with or without drug	0.9	-0.51	1.46	1.02
Jak3	no change with or without drug	0.11	-0.67	0.67	0.95
Dnase1	no change with or without drug	0.9	0	1.01	1.02
Lilrb4a	no change with or without drug	-0.67	0.17	-0.67	0.88
Nxpe4	no change with or without drug	-0.22	-0.17	0	0.92
Cap2	no change with or without drug	-1.46	-1.18	-0.67	0.81
Tmem252	high cell count without drug only	0.67	2.53	-0.79	1
Atp5f1a	no change with or without drug	0	-1.35	1.12	0.94
Rab3c	no change with or without drug	0.79	0	0.9	1.01
Copg2	no change with or without drug	1.12	0.17	1.12	1.04
Mycbpap	no change with or without drug	0	-0.17	0.22	0.94
Or8b12i	low cell count with doxorubicin only (active)	-2.02	-1.01	-1.46	0.76
Gca	no change with or without drug	1.01	0.51	0.79	1.03
Trim3	high cell count with and without drug	3.04	3.2	0.9	1.21
Apc	no change with or without drug	0.45	-0.84	1.24	0.98
Ly6e	no change with or without drug	0.79	-0.84	1.57	1.01
Padi4	no change with or without drug	0.67	0.84	0.22	1
Ndst2	no change with or without drug	-1.12	-0.84	-0.56	0.84
Clec4f	no change with or without drug	-1.8	-1.85	-0.56	0.78
Pcdhb12	low cell count with doxorubicin only (active)	-2.59	-1.52	-1.69	0.71
Arih1	no change with or without drug	-0.56	-1.52	0.56	0.89
Rasgrf1	high cell count with and without drug	2.02	2.02	0.79	1.12
BCLP2	no change with or without drug	0.11	-0.17	0.34	0.95
Pcdhb9	low cell count with doxorubicin only (active)	-2.02	-0.51	-1.69	0.76
Mknk1	no change with or without drug	0.9	-1.35	2.14	1.02
BC051665	low cell count without drug only	-0.9	-2.53	1.01	0.86
Zfp64	no change with or without drug	-0.45	1.35	-1.24	0.9
Zfp763	no change with or without drug	0.11	-0.51	0.56	0.95

In a second layout: results already given.
Stfa1
- combined z-score class: high cell count with and without drug
- viability z-score with doxorubicin: 2.47
- viability z-score without drug: 2.36
- z-score of drug to no-drug ratio: 0.9
- doxorubicin viability vs non-targeting: 1.16

4933414I15Rik
- combined z-score class: high cell count without drug only
- viability z-score with doxorubicin: 1.91
- viability z-score without drug: 3.04
- z-score of drug to no-drug ratio: 0
- doxorubicin viability vs non-targeting: 1.11

Or9k2b
- combined z-score class: no change with or without drug
- viability z-score with doxorubicin: -0.9
- viability z-score without drug: -0.34
- z-score of drug to no-drug ratio: -0.67
- doxorubicin viability vs non-targeting: 0.86

B530045E10Rik
- combined z-score class: no change with or without drug
- viability z-score with doxorubicin: -0.22
- viability z-score without drug: -0.17
- z-score of drug to no-drug ratio: 0
- doxorubicin viability vs non-targeting: 0.92

Slc4a4
- combined z-score class: no change with or without drug
- viability z-score with doxorubicin: -0.45
- viability z-score without drug: -0.34
- z-score of drug to no-drug ratio: -0.11
- doxorubicin viability vs non-targeting: 0.9

Hmgxb4
- combined z-score class: no change with or without drug
- viability z-score with doxorubicin: 0.9
- viability z-score without drug: -0.51
- z-score of drug to no-drug ratio: 1.46
- doxorubicin viability vs non-targeting: 1.02

Jak3
- combined z-score class: no change with or without drug
- viability z-score with doxorubicin: 0.11
- viability z-score without drug: -0.67
- z-score of drug to no-drug ratio: 0.67
- doxorubicin viability vs non-targeting: 0.95
